According to publication PMC6944907:
These are yes or no findings as the source states them, for the method shown. Binding seen in cells or lysates may run through a third protein.

Sequences of proteins named here, by UniProt entry; tags and fusion partners are left off.
UniProt Q14258: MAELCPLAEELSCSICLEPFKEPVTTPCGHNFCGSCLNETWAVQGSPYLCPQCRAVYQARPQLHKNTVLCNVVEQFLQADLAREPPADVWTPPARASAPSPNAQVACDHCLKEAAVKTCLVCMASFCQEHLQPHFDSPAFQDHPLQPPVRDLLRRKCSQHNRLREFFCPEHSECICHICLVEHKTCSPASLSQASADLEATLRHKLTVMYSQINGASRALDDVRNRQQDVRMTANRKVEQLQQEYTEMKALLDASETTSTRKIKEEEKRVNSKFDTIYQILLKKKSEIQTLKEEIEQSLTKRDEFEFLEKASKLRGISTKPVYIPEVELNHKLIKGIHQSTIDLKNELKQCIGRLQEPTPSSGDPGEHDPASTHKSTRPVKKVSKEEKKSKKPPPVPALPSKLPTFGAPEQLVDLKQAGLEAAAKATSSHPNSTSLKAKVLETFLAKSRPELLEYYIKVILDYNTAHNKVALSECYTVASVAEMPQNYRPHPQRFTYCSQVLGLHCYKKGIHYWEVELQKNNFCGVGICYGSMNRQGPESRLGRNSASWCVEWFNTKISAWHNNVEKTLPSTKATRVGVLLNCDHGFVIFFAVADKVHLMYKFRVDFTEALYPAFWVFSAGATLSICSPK

Target: TRIM25 (endogenous, RD cells) (human (endogenous in RD)) (UniProt Q14258)
Assay: co-IP

SAMHD1-HA (stably expressed in RD cells) (from UniProt Q9Y3Z3 1-626)
binding: no binding
